Assay results taken from the supplement of paper PMC10849652.
The other results are listed elsewhere or left out.

Sequences of proteins named here, by UniProt entry; tags and fusion partners are left off. A change or cut given only in a name is not applied to a line headed by its entry.
UniProt Q8IUI8: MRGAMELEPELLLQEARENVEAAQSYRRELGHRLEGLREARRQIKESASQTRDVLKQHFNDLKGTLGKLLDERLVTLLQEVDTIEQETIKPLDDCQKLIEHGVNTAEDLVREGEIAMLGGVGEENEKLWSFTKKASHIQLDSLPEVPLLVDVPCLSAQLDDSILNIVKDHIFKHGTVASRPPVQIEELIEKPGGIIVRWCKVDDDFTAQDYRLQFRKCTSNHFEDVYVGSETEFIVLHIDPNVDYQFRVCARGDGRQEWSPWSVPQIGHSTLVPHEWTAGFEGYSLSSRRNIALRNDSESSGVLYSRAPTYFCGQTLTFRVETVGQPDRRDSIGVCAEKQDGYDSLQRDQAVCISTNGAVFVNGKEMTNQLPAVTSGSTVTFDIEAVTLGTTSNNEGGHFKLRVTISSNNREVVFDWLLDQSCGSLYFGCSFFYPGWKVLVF
UniProt P08574: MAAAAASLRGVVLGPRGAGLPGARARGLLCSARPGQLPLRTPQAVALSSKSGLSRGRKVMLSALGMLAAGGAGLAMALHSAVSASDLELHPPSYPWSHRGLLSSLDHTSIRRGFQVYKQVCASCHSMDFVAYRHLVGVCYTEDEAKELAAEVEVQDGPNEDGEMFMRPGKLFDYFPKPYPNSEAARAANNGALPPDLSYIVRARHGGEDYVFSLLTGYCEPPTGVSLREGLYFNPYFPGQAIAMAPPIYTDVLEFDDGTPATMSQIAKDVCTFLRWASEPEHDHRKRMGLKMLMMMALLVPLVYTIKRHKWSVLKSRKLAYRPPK
UniProt Q5JQC4: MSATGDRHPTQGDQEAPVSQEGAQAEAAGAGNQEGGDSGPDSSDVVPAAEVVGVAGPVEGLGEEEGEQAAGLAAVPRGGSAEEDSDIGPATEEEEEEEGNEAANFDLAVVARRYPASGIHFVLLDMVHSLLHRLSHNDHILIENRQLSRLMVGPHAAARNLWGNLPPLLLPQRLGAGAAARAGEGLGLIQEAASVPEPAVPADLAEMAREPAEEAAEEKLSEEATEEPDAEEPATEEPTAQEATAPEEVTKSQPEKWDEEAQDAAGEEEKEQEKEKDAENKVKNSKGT
UniProt Q6UUV9: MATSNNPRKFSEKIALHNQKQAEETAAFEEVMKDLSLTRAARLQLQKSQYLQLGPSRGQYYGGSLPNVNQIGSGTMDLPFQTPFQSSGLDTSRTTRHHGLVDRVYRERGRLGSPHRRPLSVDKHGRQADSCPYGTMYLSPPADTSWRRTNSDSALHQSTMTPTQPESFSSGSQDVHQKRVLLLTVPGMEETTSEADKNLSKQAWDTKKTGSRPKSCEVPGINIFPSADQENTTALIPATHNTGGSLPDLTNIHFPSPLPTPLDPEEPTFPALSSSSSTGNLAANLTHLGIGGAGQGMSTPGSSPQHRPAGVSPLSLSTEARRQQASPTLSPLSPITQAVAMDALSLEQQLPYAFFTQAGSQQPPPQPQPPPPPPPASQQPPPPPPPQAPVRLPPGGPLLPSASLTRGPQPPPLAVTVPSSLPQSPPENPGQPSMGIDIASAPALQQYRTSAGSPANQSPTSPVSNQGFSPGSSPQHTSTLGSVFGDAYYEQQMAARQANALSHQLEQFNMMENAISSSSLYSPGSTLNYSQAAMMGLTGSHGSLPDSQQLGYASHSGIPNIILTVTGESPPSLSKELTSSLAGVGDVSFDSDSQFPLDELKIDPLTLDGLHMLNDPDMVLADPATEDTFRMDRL
UniProt Q13616, whole entry, looked up: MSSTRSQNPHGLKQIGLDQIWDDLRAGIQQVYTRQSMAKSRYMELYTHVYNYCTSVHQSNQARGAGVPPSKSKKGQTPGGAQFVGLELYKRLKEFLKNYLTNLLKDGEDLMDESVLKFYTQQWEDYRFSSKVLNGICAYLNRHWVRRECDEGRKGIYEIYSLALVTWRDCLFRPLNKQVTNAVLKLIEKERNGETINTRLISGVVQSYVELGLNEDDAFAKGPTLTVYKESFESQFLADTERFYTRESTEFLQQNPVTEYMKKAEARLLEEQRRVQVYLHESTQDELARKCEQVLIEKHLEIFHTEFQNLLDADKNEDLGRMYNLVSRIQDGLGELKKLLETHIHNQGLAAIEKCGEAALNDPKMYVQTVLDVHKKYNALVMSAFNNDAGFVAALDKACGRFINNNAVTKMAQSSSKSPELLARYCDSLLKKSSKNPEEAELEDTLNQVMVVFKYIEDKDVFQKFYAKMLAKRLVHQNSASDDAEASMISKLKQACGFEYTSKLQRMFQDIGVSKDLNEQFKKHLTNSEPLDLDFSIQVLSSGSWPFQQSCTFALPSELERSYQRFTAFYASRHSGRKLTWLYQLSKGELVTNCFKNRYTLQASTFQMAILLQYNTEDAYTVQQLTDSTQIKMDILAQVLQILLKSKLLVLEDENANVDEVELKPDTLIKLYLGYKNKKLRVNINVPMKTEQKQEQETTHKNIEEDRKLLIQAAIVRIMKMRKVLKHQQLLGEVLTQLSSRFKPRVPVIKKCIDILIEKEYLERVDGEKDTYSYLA
UniProt Q69YN2: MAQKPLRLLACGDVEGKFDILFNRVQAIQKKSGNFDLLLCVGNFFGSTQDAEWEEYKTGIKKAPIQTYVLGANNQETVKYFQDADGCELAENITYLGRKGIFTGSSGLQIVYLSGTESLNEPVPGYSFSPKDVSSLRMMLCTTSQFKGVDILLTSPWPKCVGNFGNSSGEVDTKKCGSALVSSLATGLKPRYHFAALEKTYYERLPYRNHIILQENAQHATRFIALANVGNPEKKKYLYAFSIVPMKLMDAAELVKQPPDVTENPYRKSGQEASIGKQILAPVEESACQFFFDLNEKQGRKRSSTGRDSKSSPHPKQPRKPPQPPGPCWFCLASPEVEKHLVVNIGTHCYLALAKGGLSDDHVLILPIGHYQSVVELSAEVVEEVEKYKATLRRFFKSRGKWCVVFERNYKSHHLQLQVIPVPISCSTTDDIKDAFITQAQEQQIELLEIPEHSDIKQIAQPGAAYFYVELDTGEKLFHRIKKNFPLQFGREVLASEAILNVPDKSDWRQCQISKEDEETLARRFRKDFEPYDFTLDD
UniProt Q14247: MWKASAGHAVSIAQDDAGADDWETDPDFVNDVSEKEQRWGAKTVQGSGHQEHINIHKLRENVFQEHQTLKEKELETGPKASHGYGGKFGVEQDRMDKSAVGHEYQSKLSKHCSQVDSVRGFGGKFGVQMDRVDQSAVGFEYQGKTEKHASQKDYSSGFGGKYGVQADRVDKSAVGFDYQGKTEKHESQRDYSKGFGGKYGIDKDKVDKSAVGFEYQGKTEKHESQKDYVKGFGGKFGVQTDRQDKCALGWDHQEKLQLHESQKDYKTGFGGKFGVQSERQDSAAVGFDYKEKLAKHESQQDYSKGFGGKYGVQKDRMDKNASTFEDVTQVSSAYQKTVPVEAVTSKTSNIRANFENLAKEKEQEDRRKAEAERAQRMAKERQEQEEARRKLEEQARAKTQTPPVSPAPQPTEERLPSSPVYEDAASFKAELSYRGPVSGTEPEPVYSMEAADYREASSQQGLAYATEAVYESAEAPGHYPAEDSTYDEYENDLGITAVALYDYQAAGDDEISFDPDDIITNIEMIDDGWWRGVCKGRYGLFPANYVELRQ
UniProt Q8NBI2: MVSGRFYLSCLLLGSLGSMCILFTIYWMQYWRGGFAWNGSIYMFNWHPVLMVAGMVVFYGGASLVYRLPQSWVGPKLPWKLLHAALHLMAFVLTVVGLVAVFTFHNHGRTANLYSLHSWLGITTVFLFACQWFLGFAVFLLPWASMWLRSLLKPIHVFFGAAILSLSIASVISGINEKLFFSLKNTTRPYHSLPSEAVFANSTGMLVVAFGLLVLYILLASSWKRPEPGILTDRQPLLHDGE
UniProt Q92793, whole entry, looked up: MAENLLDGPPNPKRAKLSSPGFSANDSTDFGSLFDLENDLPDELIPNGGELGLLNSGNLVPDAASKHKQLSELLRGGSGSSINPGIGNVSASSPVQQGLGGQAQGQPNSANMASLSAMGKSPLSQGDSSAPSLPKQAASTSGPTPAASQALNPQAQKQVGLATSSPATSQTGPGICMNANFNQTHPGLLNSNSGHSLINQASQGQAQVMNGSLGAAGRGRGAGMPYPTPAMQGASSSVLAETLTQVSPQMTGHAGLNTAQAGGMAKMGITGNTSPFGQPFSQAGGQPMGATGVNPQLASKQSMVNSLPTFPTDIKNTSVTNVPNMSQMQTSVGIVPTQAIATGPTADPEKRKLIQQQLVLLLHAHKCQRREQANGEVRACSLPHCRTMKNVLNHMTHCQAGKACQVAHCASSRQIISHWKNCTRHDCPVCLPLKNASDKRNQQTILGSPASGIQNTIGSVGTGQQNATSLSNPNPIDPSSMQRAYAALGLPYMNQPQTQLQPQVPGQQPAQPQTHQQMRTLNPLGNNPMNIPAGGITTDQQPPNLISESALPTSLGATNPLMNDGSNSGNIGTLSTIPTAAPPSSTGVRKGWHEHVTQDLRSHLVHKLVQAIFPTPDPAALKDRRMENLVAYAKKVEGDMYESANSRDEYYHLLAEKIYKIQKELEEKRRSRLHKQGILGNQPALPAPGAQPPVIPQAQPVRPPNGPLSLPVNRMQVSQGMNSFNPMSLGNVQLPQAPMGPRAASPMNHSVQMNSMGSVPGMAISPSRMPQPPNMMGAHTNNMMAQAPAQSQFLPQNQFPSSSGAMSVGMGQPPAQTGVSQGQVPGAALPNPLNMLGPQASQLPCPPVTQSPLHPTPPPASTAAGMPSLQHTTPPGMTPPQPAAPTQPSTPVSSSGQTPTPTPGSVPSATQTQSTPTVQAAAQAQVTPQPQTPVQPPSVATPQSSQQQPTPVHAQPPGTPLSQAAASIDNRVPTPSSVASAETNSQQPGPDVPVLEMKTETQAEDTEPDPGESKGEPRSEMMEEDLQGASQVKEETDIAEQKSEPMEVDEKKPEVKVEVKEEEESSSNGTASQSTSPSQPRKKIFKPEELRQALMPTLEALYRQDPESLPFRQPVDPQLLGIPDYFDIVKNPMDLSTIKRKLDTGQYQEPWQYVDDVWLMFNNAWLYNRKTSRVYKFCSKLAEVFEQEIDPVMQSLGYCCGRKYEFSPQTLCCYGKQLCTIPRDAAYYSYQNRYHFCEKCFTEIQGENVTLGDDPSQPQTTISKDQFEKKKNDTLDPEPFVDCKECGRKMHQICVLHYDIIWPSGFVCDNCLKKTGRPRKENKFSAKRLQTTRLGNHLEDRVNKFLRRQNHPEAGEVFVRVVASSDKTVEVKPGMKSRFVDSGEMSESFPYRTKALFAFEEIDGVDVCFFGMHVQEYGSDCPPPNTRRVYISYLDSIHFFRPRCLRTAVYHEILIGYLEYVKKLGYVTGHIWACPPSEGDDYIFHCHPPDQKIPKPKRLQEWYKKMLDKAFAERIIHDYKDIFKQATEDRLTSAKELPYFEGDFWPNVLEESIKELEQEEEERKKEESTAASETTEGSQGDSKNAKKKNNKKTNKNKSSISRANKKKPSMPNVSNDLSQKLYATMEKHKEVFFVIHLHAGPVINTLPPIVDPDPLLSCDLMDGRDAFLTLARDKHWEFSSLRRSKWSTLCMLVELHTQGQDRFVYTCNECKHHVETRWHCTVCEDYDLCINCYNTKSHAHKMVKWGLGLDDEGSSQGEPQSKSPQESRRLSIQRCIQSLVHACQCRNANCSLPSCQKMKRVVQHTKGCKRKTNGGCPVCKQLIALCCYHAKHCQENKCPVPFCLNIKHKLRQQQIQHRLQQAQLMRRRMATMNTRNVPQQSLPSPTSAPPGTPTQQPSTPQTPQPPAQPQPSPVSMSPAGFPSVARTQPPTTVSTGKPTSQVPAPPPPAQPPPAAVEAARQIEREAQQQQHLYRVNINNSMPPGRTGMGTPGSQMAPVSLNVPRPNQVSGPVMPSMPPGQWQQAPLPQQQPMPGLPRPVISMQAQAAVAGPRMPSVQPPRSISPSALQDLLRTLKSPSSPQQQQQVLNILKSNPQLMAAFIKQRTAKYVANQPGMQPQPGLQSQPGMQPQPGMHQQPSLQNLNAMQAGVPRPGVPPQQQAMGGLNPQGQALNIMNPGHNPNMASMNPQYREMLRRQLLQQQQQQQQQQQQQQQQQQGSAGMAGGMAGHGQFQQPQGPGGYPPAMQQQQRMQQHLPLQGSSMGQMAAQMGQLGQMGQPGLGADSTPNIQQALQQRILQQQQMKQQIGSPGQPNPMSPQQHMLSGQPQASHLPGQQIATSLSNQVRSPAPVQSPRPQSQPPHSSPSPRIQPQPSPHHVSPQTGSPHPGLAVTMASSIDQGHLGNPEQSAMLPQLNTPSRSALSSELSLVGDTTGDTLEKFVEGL
UniProt Q6UXH1: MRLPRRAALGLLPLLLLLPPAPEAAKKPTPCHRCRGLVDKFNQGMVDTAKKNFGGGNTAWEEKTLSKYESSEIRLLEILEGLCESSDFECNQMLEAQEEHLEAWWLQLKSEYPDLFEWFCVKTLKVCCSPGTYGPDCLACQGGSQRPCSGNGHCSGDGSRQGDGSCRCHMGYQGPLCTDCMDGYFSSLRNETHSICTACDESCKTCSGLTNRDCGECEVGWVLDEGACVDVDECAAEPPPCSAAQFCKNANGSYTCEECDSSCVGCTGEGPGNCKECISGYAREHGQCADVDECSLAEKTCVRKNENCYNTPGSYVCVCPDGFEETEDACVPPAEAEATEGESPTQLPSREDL

compound: CCn1cc(-c2ccnc3[nH]c(-c4cccc(CN(C)C)c4)cc23)c(-c2ccc(NC(=O)N(C)C)cc2)n1; experiment: log2 fold change, soluble protein after heating vs DMSO (PISA); higher = thermal stabilisation; K562 lysate, 10 uM; active = over 0.2 and 3.5 SD of the protein, either way, in both replicates (recomputed)
Outline: (§1)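 Soluble protein was defined as the supernatant remaining after 21,000xg for 90 min, following pooling of heated aliquots and adjustment to 0.5% NP-40 at 4°C. Before that, crude K562 extract at 1 mg/mL protein in PBS pH 7.4 with 1 mM MgCl2 was treated with 10 μM compound for 30 min and heated for 3 min across 48°C-58°C. Quantification used TMTpro 16plex LC-MS/MS with channel sums equalised, and values are log-two fold changes in thermal stability relative to solvent controls from duplicates.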

Target | log2 fold change
CRTAP (UniProt O75718) | inactive: 0.026
CRBN (UniProt Q96SW2) | inactive: -0.075
CT45A10 (UniProt P0DMU9) | inactive: 0.043
CRLF3 (UniProt Q8IUI8) | inactive: -0.092
CTNNA1 (UniProt P35221) | inactive: -0.024
CYC1 (UniProt P08574) | inactive: 0.132
CTNND1 isoform 3 (UniProt O60716) | inactive: -0.032
CUL2 isoform 2 (UniProt Q13617) | inactive: 0.03
CT47A1 (UniProt Q5JQC4) | inactive: -0.073
CUX1 isoform 3 (UniProt P39880) | inactive: 0.107
CSE1L (UniProt P55060) | inactive: -0.032
CRTC1 (UniProt Q6UUV9) | inactive: 0.001
CTBS (UniProt Q01459) | inactive: -0.006
CUL1 (UniProt Q13616) | inactive: -0.013
CWF19L1 (UniProt Q69YN2) | inactive: 0.06
CYB5R3 isoform 3 (UniProt P00387) | inactive: -0.015

Target | log2 fold change
CTTN (UniProt Q14247) | inactive: -0.006
CYB561A3 isoform 2 (UniProt Q8NBI2) | inactive: -0.43
CUL5 (UniProt Q93034) | inactive: -0.079
CROCC (UniProt Q5TZA2) | inactive: -0.157
CREG1 (UniProt O75629) | inactive: 0.006
CYB5R2 (UniProt Q6BCY4) | inactive: -0.068
CXXC1 isoform 2 (UniProt Q9P0U4) | inactive: -0.072
CSNK2A1 (UniProt P68400) | inactive: -0.009
CSRP3 (UniProt P50461) | inactive: -0.048
CUTC (UniProt Q9NTM9) | inactive: -0.062
CRNKL1 (UniProt Q9BZJ0) | inactive: 0.096
CREBBP (UniProt Q92793) | inactive: 0.079
CYB5R4 (UniProt Q7L1T6) | inactive: -0.049
CTPS1 (UniProt P17812) | inactive: -0.041
CRELD2 isoform 5 (UniProt Q6UXH1) | inactive: -0.017
CWF19L2 (UniProt Q2TBE0) | inactive: -0.055

compound: CN1CCC(CNc2ccc3ncc(-c4cccc(OC(F)(F)F)c4)n3n2)CC1; experiment: as above
Outline: as §1

Target | log2 fold change
CRTAP (UniProt O75718) | inactive: 0
CRBN (UniProt Q96SW2) | inactive: 0.073
CT45A10 (UniProt P0DMU9) | inactive: -0.01
CRLF3 (UniProt Q8IUI8) | inactive: 0.064
CTNNA1 (UniProt P35221) | inactive: 0.039
CYC1 (UniProt P08574) | inactive: 0
CTNND1 isoform 3 (UniProt O60716) | inactive: 0.004
CUL2 isoform 2 (UniProt Q13617) | inactive: 0.011
CT47A1 (UniProt Q5JQC4) | inactive: -0.069
CUX1 isoform 3 (UniProt P39880) | inactive: -0.152
CSE1L (UniProt P55060) | inactive: -0.011
CRTC1 (UniProt Q6UUV9) | inactive: 0.054
CTBS (UniProt Q01459) | inactive: -0.008
CUL1 (UniProt Q13616) | inactive: 0.029
CWF19L1 (UniProt Q69YN2) | inactive: -0.029
CYB5R3 isoform 3 (UniProt P00387) | inactive: 0.043

Target | log2 fold change
CTTN (UniProt Q14247) | inactive: 0.052
CYB561A3 isoform 2 (UniProt Q8NBI2) | inactive: 0.242
CUL5 (UniProt Q93034) | inactive: 0.038
CROCC (UniProt Q5TZA2) | inactive: 0.113
CREG1 (UniProt O75629) | inactive: 0.046
CYB5R2 (UniProt Q6BCY4) | inactive: 0.079
CXXC1 isoform 2 (UniProt Q9P0U4) | inactive: 0.041
CSNK2A1 (UniProt P68400) | inactive: 0.165
CSRP3 (UniProt P50461) | inactive: 0.198
CUTC (UniProt Q9NTM9) | inactive: 0.078
CRNKL1 (UniProt Q9BZJ0) | inactive: -0.016
CREBBP (UniProt Q92793) | inactive: -0.004
CYB5R4 (UniProt Q7L1T6) | inactive: 0.014
CTPS1 (UniProt P17812) | inactive: -0.011
CRELD2 isoform 5 (UniProt Q6UXH1) | inactive: 0.03
CWF19L2 (UniProt Q2TBE0) | inactive: -0.017

compound: CN1CCN(CCOc2cc(OC3CCOCC3)c3c(Nc4c(Cl)ccc5c4OCO5)ncnc3c2)CC1 [saracatinib]; experiment: as above
Outline: as §1

Target | log2 fold change
CRTAP (UniProt O75718) | inactive: 0.034
CRBN (UniProt Q96SW2) | inactive: 0.026
CT45A10 (UniProt P0DMU9) | inactive: 0.019
CRLF3 (UniProt Q8IUI8) | inactive: -0.024
CTNNA1 (UniProt P35221) | inactive: 0.002
CYC1 (UniProt P08574) | inactive: 0.003
CTNND1 isoform 3 (UniProt O60716) | inactive: -0.012
CUL2 isoform 2 (UniProt Q13617) | inactive: 0.001
CT47A1 (UniProt Q5JQC4) | inactive: 0.084
CUX1 isoform 3 (UniProt P39880) | inactive: 0.018
CSE1L (UniProt P55060) | inactive: 0.014
CRTC1 (UniProt Q6UUV9) | inactive: 0.035
CTBS (UniProt Q01459) | inactive: -0.01
CUL1 (UniProt Q13616) | inactive: -0.023
CWF19L1 (UniProt Q69YN2) | inactive: 0.01
CYB5R3 isoform 3 (UniProt P00387) | inactive: -0.009

Target | log2 fold change
CTTN (UniProt Q14247) | inactive: -0.06
CYB561A3 isoform 2 (UniProt Q8NBI2) | inactive: 0.113
CUL5 (UniProt Q93034) | inactive: -0.017
CROCC (UniProt Q5TZA2) | inactive: -0.021
CREG1 (UniProt O75629) | inactive: 0
CYB5R2 (UniProt Q6BCY4) | inactive: -0.017
CXXC1 isoform 2 (UniProt Q9P0U4) | inactive: -0.066
CSNK2A1 (UniProt P68400) | inactive: -0.028
CSRP3 (UniProt P50461) | inactive: -0.058
CUTC (UniProt Q9NTM9) | inactive: -0.011
CRNKL1 (UniProt Q9BZJ0) | inactive: 0.083
CREBBP (UniProt Q92793) | inactive: 0.017
CYB5R4 (UniProt Q7L1T6) | inactive: 0.024
CTPS1 (UniProt P17812) | inactive: 0.007
CRELD2 isoform 5 (UniProt Q6UXH1) | inactive: -0.009
CWF19L2 (UniProt Q2TBE0) | inactive: -0.01
